Results on 39 sequences are retold here after paper PMC7862700.

Some of the results follow. Construct or isoform of the protein are uncertain.

The target in the experiment is T1, ELF2 (UniProt Q15723).
T1 sequence: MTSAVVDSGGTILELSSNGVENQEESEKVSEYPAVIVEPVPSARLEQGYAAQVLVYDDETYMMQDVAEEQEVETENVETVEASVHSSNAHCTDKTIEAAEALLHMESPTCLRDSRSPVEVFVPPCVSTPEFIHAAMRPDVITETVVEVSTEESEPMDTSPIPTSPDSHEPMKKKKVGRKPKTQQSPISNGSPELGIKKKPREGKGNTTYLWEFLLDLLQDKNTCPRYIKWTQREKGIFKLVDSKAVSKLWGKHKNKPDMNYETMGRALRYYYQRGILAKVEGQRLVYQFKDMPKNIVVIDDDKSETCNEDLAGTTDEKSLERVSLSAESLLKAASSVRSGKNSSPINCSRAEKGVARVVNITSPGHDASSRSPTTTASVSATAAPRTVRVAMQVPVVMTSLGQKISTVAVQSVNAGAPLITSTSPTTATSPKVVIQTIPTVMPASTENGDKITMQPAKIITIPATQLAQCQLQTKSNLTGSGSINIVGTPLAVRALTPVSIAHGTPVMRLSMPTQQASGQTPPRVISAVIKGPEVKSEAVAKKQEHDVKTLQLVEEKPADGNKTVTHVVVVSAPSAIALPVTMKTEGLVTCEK
The experiment is described as follows: DAPPL (digital affinity profiling via proximity ligation, sequencing). The following applies: 10 mM Tris-HCl pH 7.5, 50 mM NaCl, 1 mM DTT, 4% glycerol, room temperature, 30 min; GST-TFs on glutathione beads, 16-mer random dsDNA library, 0.1% …; high values mean tight binding; double strand, one strand shown; scale: fold enrichment (6-mer frequency, TF over GST control).
Turning to ACTTCA, the binding signal is 1.38.
Sequence ATACCC had a binding signal of 1.19.
Sequence TTCATC showed a binding signal of 1.15.
CATATA had a binding signal of 1.06.
For GAAGCT the value was 1.79; for TACTTG, 1.24; for ATCATG, 1.03.
The sequence AATAAG yielded a binding signal of 1.32.
For ACTCCC the value was 1.33; for GCTCCT, 1.34; for TCTGCT, 1.23.
For CGTTCG, the binding signal amounted to 1.17.
The sequence CTTTCT came in with a binding signal of 1.46.
In turn, TTAATT yielded a binding signal of 1.48.
In the case of CCAATC, the binding signal came to 1.11.
The figure for TGGAAA is 1.06; for CCTTTC it is 1.61.
With TAGCCC, the binding signal was 1.1.
CCCGCA returned a binding signal of 1.2.
Turning to GGAACA, the binding signal was 1.29.
For the sequence CCGATT, the binding signal is 1.38.
The figure for GGCTCA is 1.23; for GGCTTC it is 1.94.
In the case of TTTGCG, the binding signal was 1.22.
The sequence CCATAT gave a binding signal of 1.28.
The figure for CACTCT is 1.27; for TGAATT it is 1.16.
On to CACGCT, for which the binding signal was 1.32.
In the case of CCTAGA, the binding signal stood at 0.959.
Sequence TCAACC showed a binding signal of 1.14.
Consider TACCGA, for which the binding signal worked out at 1.07.
The figure for CTTATG is 1.37.
The figure for ACTGCG is 1.26; for ATTCCG it is 2.25.
For CTTACC the value was 1.23; for TACTAG, 0.957.
CGTAAT: the binding signal was 1.18.
For the sequence TACGTA, the binding signal turned out to be 1.29.
As to CTTATC, the binding signal was 1.13.
